PubChem BioAssay AID1259308 – NCATS – 2017
Assay: 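Knock-downs that increase output of a recombinant reporter protein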 (primary screen). Cells: human HEK293 embryonic kidney cells stably expressing firefly luciferase (HEK-CMV-Luc2-Hygro). Reagents: single siRNA against human genes, 0.8 pmol siRNA per well. Time to read-out: 72 h. Measurement: 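Reporter luminescence and viable-cell signal on separate replicate plates, given as percent of non-targeting control and median/MAD z-scores, plus per-cell luciferase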. Direction: total luciferase, z-score and total luciferase, % of control: higher = more reporter protein produced; luciferase per cell, z-score: higher = more reporter output per viable cell; viable cells, % of control: higher = more viable cells. Hit rule: 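An siRNA counts as active if its total luciferase robust z-score exceeds 3; genes with two or more such siRNAs out of three were retested with fresh siRNAs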. Calls: active = raised luciferase; inactive = no rise.
This is one part, drawn at random, of about 59,000 reagents. About 1,510 of them (2.6%) count as active. 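Calls use total luciferase alone and ignore viability, so some active siRNAs may act by altering cell number.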 A number with no mark means an inactive call. The numbers tell different reagents against one gene apart.

no.	Target gene	reagent	total luciferase, z-score	total luciferase, % of control	luciferase per cell, z-score	viable cells, % of control
1	ARL6IP6 (GeneID 151188)	1	2.73	136	1.13	113
2	ARL6IP6 (GeneID 151188)	2	0.485	91.5	1.46	69.7
3	ARL6IP6 (GeneID 151188)	3	0.572	93.3	0.501	91.4
4	FZD9 (GeneID 8326)	1	1.15	105	0.792	95.1
5	FZD9 (GeneID 8326)	2	0.194	85.7	0.443	85.3
6	FZD9 (GeneID 8326)	3	0.037	82.6	-0.478	105
7	SLC40A1 (GeneID 30061)	1	-0.233	77.3	-0.505	98.6
8	SLC40A1 (GeneID 30061)	2	3.31 (active)	148	1.99	97.7
9	SLC40A1 (GeneID 30061)	3	0.469	91.2	0.201	96.7
10	ZNF443 (GeneID 10224)	1	-1.88	44.5	-0.326	54.2
11	ZNF443 (GeneID 10224)	2	0.195	85.8	0.12	92.8
12	ZNF443 (GeneID 10224)	3	3.14 (active)	144	1.98	95.8
13	DACH1 (GeneID 1602)	1	-0.811	65.8	-0.837	91.6
14	DACH1 (GeneID 1602)	2	0.467	91.2	1.28	72.7
15	DACH1 (GeneID 1602)	3	2.68	135	3.29	63.4
16	CXCL8 (GeneID 3576)	1	-0.207	77.8	-0.294	93.9
17	CXCL8 (GeneID 3576)	2	0.804	97.9	1.65	70.8
18	CXCL8 (GeneID 3576)	3	1.2	106	1.22	85.7
19	RAB40B (GeneID 10966)	1	0.217	86.2	0.206	91.2
20	RAB40B (GeneID 10966)	2	0.413	90.1	0.466	89.1
21	RAB40B (GeneID 10966)	3	1.66	115	0.78	105

The list goes on; the last 2 above are carried over.
no.	Target gene	reagent	total luciferase, z-score	total luciferase, % of control	luciferase per cell, z-score	viable cells, % of control
20	RAB40B (GeneID 10966)	2	0.413	90.1	0.466	89.1
21	RAB40B (GeneID 10966)	3	1.66	115	0.78	105
22	CRACDL (GeneID 343990)	1	2.44	130	3.24	62
23	CRACDL (GeneID 343990)	2	0.00141	81.9	0.149	88
24	CRACDL (GeneID 343990)	3	-1.13	59.4	-1.76	106
25	KCNS1 (GeneID 3787)	1	-1.5	52	-1.9	95.9
26	KCNS1 (GeneID 3787)	2	2.73	136	2.86	71.7
27	KCNS1 (GeneID 3787)	3	-0.209	77.7	-0.475	98.4
28	CLEC4A (GeneID 50856)	1	0.498	91.8	0.551	88.7
29	CLEC4A (GeneID 50856)	2	-0.408	73.8	-0.562	95.6
30	CLEC4A (GeneID 50856)	3	-0.713	67.7	-0.168	79.1
31	SPTBN4 (GeneID 57731)	1	-0.149	78.9	0.249	82.6
32	SPTBN4 (GeneID 57731)	2	-0.818	65.6	0.00828	73.2
33	SPTBN4 (GeneID 57731)	3	-0.398	74	-0.559	95.8
34	TMEM74 (GeneID 157753)	1	2.08	123	2.16	78
35	TMEM74 (GeneID 157753)	2	-0.547	71	-0.411	88.4
36	TMEM74 (GeneID 157753)	3	-0.534	71.3	-0.413	88.8
37	CXCL2 (GeneID 2920)	1	0.719	96.2	0.113	104
38	CXCL2 (GeneID 2920)	2	0.0822	83.5	-0.0418	94.4
39	CXCL2 (GeneID 2920)	3	1.54	112	1.72	79.9
40	FBXL4 (GeneID 26235)	1	-0.122	79.5	-1.01	116
41	FBXL4 (GeneID 26235)	2	-0.651	68.9	0.167	73.7
42	FBXL4 (GeneID 26235)	3	2.03	122	1.4	94.4
43	KIF9 (GeneID 64147)	1	-1.72	47.6	-0.675	63.6
44	KIF9 (GeneID 64147)	2	0.623	94.3	0.317	96.9
45	KIF9 (GeneID 64147)	3	-0.504	71.9	-0.248	85.7
46	TXNDC16 (GeneID 57544)	1	0.879	99.4	1.01	85.1
47	TXNDC16 (GeneID 57544)	2	2.42	130	2.05	84.7
48	TXNDC16 (GeneID 57544)	3	0.46	91	0.893	80.4
49	NCAPH (GeneID 23397)	1	1.58	113	1.57	83.6
50	NCAPH (GeneID 23397)	2	-0.944	63.1	-0.726	85.4
51	NCAPH (GeneID 23397)	3	-0.0704	80.5	-0.24	95.8
52	IL6ST (GeneID 3572)	1	-0.325	75.4	-0.141	87.5
53	IL6ST (GeneID 3572)	2	-0.65	68.9	-0.875	97
54	IL6ST (GeneID 3572)	3	-0.15	78.9	-0.145	91.6
55	DNM1L (GeneID 10059)	1	1.62	114	2.28	69.9
56	DNM1L (GeneID 10059)	2	0.778	97.4	0.537	94.5
57	DNM1L (GeneID 10059)	3	-1.09	60.3	-1.47	99.3
